Assay results as given in patent US20100184088A1 (ONCOTHERAPY SCIENCE, published 2010).
These are yes or no findings as the source states them, for the method shown. In cells and extracts the contact can be indirect. Some entries that bind do so weakly or less than the wild type. For some of these results: Where a sequence is shown, tags or fusion partners need not be part of it. Blank lines part the entries; values can stand above or below the binder they belong to.

Legend:
HA-tagged VEGFR1 [1] = molecular target: T1, HA-tagged VEGFR1 (human, UniProt P17948 800-1338, limits assumed); assay: co-immunoprecipitation in HEK293 cells (anti-HA or anti-Flag IP, western blot)
T1 construct: also called HA-VEGFR1; cytoplasmic domain of VEGFR1; not shown: HA tag (pCMV-HA vector)
T1 sequence: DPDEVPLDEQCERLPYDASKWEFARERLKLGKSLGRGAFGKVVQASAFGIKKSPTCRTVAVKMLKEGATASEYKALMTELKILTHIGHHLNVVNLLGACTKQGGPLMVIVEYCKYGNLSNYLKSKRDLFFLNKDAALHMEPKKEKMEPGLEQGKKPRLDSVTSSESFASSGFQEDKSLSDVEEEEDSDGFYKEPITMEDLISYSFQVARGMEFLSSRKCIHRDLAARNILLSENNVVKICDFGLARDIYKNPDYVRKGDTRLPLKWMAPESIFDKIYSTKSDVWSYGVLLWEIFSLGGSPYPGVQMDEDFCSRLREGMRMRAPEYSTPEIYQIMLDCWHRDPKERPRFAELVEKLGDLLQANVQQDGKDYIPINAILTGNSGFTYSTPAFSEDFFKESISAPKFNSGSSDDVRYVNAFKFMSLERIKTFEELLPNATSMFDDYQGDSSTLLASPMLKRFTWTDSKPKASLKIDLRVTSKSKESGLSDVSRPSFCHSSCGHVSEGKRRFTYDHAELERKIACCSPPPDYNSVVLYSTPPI

HA-tagged VEGFR1 [2] = molecular target: T1, HA-tagged VEGFR1; assay: co-immunoprecipitation in HEK293 cells (anti-Flag or anti-HA IP, western blot anti-HA)
[3] = molecular target: T2, Flag-tagged VEGFR1#1 (codons 800-1000) (human) (UniProt P17948); assay: co-immunoprecipitation in HEK293 cells (IP anti-HA / blot anti-Flag, and IP anti-Flag / blot anti-HA)
T2 sequence: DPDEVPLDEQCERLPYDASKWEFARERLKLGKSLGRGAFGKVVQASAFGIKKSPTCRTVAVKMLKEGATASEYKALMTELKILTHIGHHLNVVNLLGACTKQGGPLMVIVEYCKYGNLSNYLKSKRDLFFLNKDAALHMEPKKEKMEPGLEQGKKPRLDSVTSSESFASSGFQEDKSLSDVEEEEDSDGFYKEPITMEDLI

[4] = molecular target: endogenous VEGFR1 (human) (UniProt P17948); assay: co-immunoprecipitation from whole cell extracts of SNU423, SW480 and MCF7 cells (IP anti-SMYD3, blot anti-VEGFR-1)
[5] = molecular target: endogenous VEGFR1 (human) (UniProt P17948); assay: co-immunoprecipitation from extracts of SNU423, SW480 or MCF7 cells (IP anti-SMYD3, blot anti-VEGFR-1)

B2: Flag-tagged SET domain of SMYD3 (100-250) (enzyme, not shown: small tags and cut ends)
chain: DSVRLLGRVVFKLMDGAPSESEKLYSFYDLESNINKLTEDKKEGLRQLVMTFQHFMREEIQDASQLPPAFDLFEAFAKVICNSFTICNAEMQEVGVGLYPSISLLNHSCDPNCSIVFNGPHLLLRAVRDIEVGEELTICYLDMLMTSEERR
binding (HA-tagged VEGFR1 [2]): binds

B5: endogenous SMYD3 (enzyme)
chain: MEPLKVEKFATANRGNGLRAVTPLRPGELLFRSDPLAYTVCKGSRGVVCDRCLLGKEKLMRCSQCRVAKYCSAKCQKKAWPDHKRECKCLKSCKPRYPPDSVRLLGRVVFKLMDGAPSESEKLYSFYDLESNINKLTEDKKEGLRQLVMTFQHFMREEIQDASQLPPAFDLFEAFAKVICNSFTICNAEMQEVGVGLYPSISLLNHSCDPNCSIVFNGPHLLLRAVRDIEVGEELTICYLDMLMTSEERRKQLRDQYCFECDCFRCQTQDKDADMLTGDEQVWKEVQESLKKIEELKAHWKWEQVLAMCQAIISSNSERLPDINIYQLKVLDCAMDACINLGLLEEALFYGTRTMEPYRIFFPGSHPVRGVQVMKVGKLQLHQGMFPQAMKNLRLAFDIMRVTHGREHSLIEDLILLLEECDANIRAS
binding [4]: binds
binding [5]: binds

Other lines, results leading:

binding (HA-tagged VEGFR1 [1]): binds
B1: Flag-tagged SMYD3-N20 (codons 20-428) (enzyme, not shown: small tags and cut ends)
chain: AVTPLRPGELLFRSDPLAYTVCKGSRGVVCDRCLLGKEKLMRCSQCRVAKYCSAKCQKKAWPDHKRECKCLKSCKPRYPPDSVRLLGRVVFKLMDGAPSESEKLYSFYDLESNINKLTEDKKEGLRQLVMTFQHFMREEIQDASQLPPAFDLFEAFAKVICNSFTICNAEMQEVGVGLYPSISLLNHSCDPNCSIVFNGPHLLLRAVRDIEVGEELTICYLDMLMTSEERRKQLRDQYCFECDCFRCQTQDKDADMLTGDEQVWKEVQESLKKIEELKAHWKWEQVLAMCQAIISSNSERLPDINIYQLKVLDCAMDACINLGLLEEALFYGTRTMEPYRIFFPGSHPVRGVQVMKVGKLQLHQGMFPQAMKNLRLAFDIMRVTHGREHSLIEDLILLLEECDANIRAS

binding [3]: binds
B3: HA-tagged SMYD3 (enzyme, not shown: small tags and cut ends)
chain: B5 chain

binding (HA-tagged VEGFR1 [1]): binds
B4: Flag-tagged wild-type SMYD3 (p3XFLAG-CMV-SMYD3) (enzyme, not shown: small tags and cut ends)
chain: B5 chain

binding (HA-tagged VEGFR1 [1]): binds
B6: Flag-tagged SMYD3-delta 2 (codons 100-428) (enzyme, not shown: small tags and cut ends)
chain: DSVRLLGRVVFKLMDGAPSESEKLYSFYDLESNINKLTEDKKEGLRQLVMTFQHFMREEIQDASQLPPAFDLFEAFAKVICNSFTICNAEMQEVGVGLYPSISLLNHSCDPNCSIVFNGPHLLLRAVRDIEVGEELTICYLDMLMTSEERRKQLRDQYCFECDCFRCQTQDKDADMLTGDEQVWKEVQESLKKIEELKAHWKWEQVLAMCQAIISSNSERLPDINIYQLKVLDCAMDACINLGLLEEALFYGTRTMEPYRIFFPGSHPVRGVQVMKVGKLQLHQGMFPQAMKNLRLAFDIMRVTHGREHSLIEDLILLLEECDANIRAS
